Experimental data from patent US20080145858A1, “DETECTION AND IDENTIFICATION OF TOXICANTS BY MEASUREMENT OF GENE […]” (priority 2003, published 2008).
For at least one compound, name, drawing or mass did not settle the structure.

Test system: Xenopus laevis cleavage stage embryos (stage 8)
Test: Xenopus cDNA microarray, differential gene expression after PMA treatment during cleavage stage (Group I)
Assay type: in vivo
Settings: treated vs untreated embryos, Table 3
From the text: Specifically, the method and screen of the present invention function as follows. EST clones produced from Xenopus laevis unfertilized eggs were used in the present study with ˜1,200 EST clones from a 18,500 EST clone set selected for production of a Xenopus cDNA microarray. The Xenopus microarray was used to measure the effect of chemical treatment on Xenopus embryo gene regulation. The chemical treatment was a phorbol ester, PMA. Xenopus eggs were obtained from females induced for ovulation and fertilized in vitro. Control Xenopus laevis embryos were allowed to develop to stage 8 blastula or stage 15 neurula. […] Analysis was performed using paired RNA samples to compare PMA-treated and untreated embryos: Group I measured the effects of PMA-treatment during the cleavage stage in stage 8 embryos and Group II measured the effects of PMA-treatment during neurulation in stage 15 embryos. Group III measured the change in gene expression between stage 8 and stage 15 embryos.
cDNA fragments were obtained by PCR replication of Xenopus laevis unfertilized egg cDNA inserts, purified, quantitated and loaded onto glass chips by robotics. […] The purity of the PCR products was assessed by electrophoresis and documented using an Alphalmager 1000 Digital Imaging System (Alpha Innotech Corporation, San Leandro, Calif.). The DNA obtained by PCR was quantitated using PicoGreen (Molecular Probes, Eugene, Oreg.). […]

With CCCCCCCCCCCCCC(=O)O[C@@H]1[C@@H](C)[C@@]2(O)[C@@H](C=C(CO)C[C@]3(O)C(=O)C(C)=C[C@@H]23)[C@@H]2C(C)(C)[C@]12OC(C)=O [PMA, phorbol 12-myristate 12-acetate] the “down-regulation of the 24 highly down-regulated genes” value was 0.6-0.15.
